Values quoted from earlier work as cited in patent US20240344138A1, “TARGETED THERAPIES IN CANCER” (Feng Biosciences, Inc, priority 2021, published 2024).
For at least one compound, name, drawing or mass did not settle the structure.

Columns and labels:
[1] = test system: metastatic renal cell carcinoma patients; settings: cited from earlier work
MDSC functions = settings: pre-clinical models; cited from earlier work

| Compound | number of circulating MDSC [1] | effect on MDSC functions (MDSC functions) |
| --- | --- | --- |
| CCN(CC)CCNC(=O)c1c(C)[nH]c(/C=C2\C(=O)Nc3ccc(F)cc32)c1C [Sunitinib] | decrease the number of circulating MDSC | – |
| CN1CC(=O)N2[C@H](c3ccc4c(c3)OCO4)c3[nH]c4ccccc4c3C[C@@H]2C1=O [tadalafil] | – | significantly inhibited the MDSC functions |
